Laboratory results: PubChem BioAssay AID1671195 (Yale University, 2021)
This is one part, drawn at random, of about 22,000 reagents. About 1,510 of all reagents (6.9%) were called active. 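Active includes knockdowns raising or lowering LDL uptake; positive z-scores mean more uptake, negative mean less.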 Entries without a mark were called inactive.

Purpose: 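Regulators of LDL receptor activity judged by labelled LDL uptake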 (primary screen)
System: human Huh7 hepatoma cells
Reagent: siRNA pool against human genes, 18 nM
Duration: about 2 to 2.5 days of knockdown, then 8 h LDL uptake
Challenge: DiI-labelled LDL at 30 µg/ml for 8 h, in lipoprotein-deficient serum medium
Measurement: 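Per-cell DiI-LDL intensity by automated imaging; well means scaled to the plate median and given as a robust z-score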
Reading the numbers: robust z-score: higher = more LDL uptake after knockdown
Active means: 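Active when two or more replicates show a robust z-score above 2 or below -2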

gene | robust z-score, replicate 1 | robust z-score, replicate 2 | robust z-score, replicate 3
NUP42 (nucleoporin 42) | 1.28 | 0.1 | -0.131
TTC14 (tetratricopeptide repeat domain 14) | 1.66 | 0.806 | 1.71
LPAR6 (lysophosphatidic acid receptor 6) | 0.027 | 0.728 | 0.18
NUCLEOLIN (nucleolin multifunctional protein) | -0.0922 | -0.127 | 0.163
FLJ46552 (retired record) | 0.371 | -1.34 | 0.323
HNRNPH3 (heterogeneous nuclear ribonucleoprotein H3) | 0.768 | 0.785 | 0.874
GAMT (guanidinoacetate N-methyltransferase) | 1.64 | 0.687 | 1.28
ATP13A3-DT (ATP13A3 divergent transcript) | -1.91 | -1.98 | -1.94
ASIC1 (acid sensing ion channel subunit 1) | 0.76 | 0.441 | 0.597
B4GAT1 (beta-1,4-glucuronyltransferase 1) | -2.1 | -0.0123 | -1.48
UBE2Q2P1 (UBE2Q2 pseudogene 1) | 1.12 | 1.27 | 1.15
LOC442100 (retired record) | -0.221 | -0.535 | -0.264
AMDHD1 (amidohydrolase domain containing 1) | -0.00288 | -0.0784 | 0.743
TCHP (trichoplein keratin filament binding) | -0.345 | -0.143 | 0.767
MICAL3 | 1.11 | 0.0516 | 0.542
BRD7 (bromodomain containing 7) | 1.36 | 0.106 | 1.67
SCN1B (sodium voltage-gated channel beta subunit 1) | 0.545 | 0.726 | 0.646
PSG1 (pregnancy specific beta-1-glycoprotein 1) | 0.62 | 1.05 | 1.37
LOC400586 (retired record) | -0.967 | -0.939 | -0.705
ADGRL1 (adhesion G protein-coupled receptor L1) | -0.642 | -0.45 | -1.16
HINT3 (histidine triad nucleotide binding protein 3) | -2.13 | -0.411 | -0.502
LOC728743 (zinc finger domain-containing protein LOC728743) | 0.462 | 0.846 | -0.0215
TOP2A (DNA topoisomerase II alpha) | 2.28 (active) | 2.5 | 1.41
C9orf43 (chromosome 9 open reading frame 43) | -0.306 | -0.219 | 0.0122
FKBPL (FKBP prolyl isomerase like) | 0.52 | 0.791 | 0.753
CRY2 (cryptochrome circadian regulator 2) | -0.9 | 0.41 | -0.383
SNX20 (sorting nexin 20) | 0.837 | 0.42 | 0.173
ANGPTL3 (angiopoietin like 3) | -1.01 | -0.338 | 0.816
ASPDH (aspartate dehydrogenase domain containing) | 1.03 | 0.353 | 0.215
CHRDL2 (chordin like 2) | -0.0871 | 0.389 | 0.43
FLNA (filamin A) | 3.89 (active) | 4.39 | 2.17
LOC442059 (retired record) | 0.827 | 0.672 | -0.267
ORC5 (origin recognition complex subunit 5) | -0.583 | -0.649 | -0.24
OSGEP (O-sialoglycoprotein endopeptidase) | 0.0461 | 1.06 | 0.336
LOC440885 (retired record) | -0.352 | -0.435 | -0.279
SND1 (staphylococcal nuclease and tudor domain containing 1) | 0.395 | 0.115 | -0.395
OR2A12 (olfactory receptor family 2 subfamily A member 12) | -0.162 | 0.284 | 0.178
FURIN (furin, paired basic amino acid cleaving enzyme) | -0.416 | 0.131 | -0.267
NFKB2 (nuclear factor kappa B subunit 2) | -0.74 | -1.29 | -0.969
CSK (C-terminal Src kinase) | 0.208 | -0.28 | 0.288
TERF2 (telomeric repeat binding factor 2) | -0.191 | 0.145 | -0.254
IER3IP1 (immediate early response 3 interacting protein 1) | -1.25 | -1.14 | -0.862
PPP1R14D (protein phosphatase 1 regulatory inhibitor subunit 14D) | -0.661 | 0.524 | -0.0915
AIPL1 (AIP like 1 HSP90 co-chaperone) | -0.572 | -0.71 | -1.16
CHD5 (chromodomain helicase DNA binding protein 5) | 0.178 | -0.239 | -0.218
LOC145780 (retired record) | 3.55 (active) | 2.54 | 3.4
CIMAP2 (ciliary microtubule associated protein 2) | 0.0843 | 0.423 | 0.0437
IFT74 (intraflagellar transport 74) | 4.51 | 0.879 | 1.16
LINC00473 (long independently transcribed non-coding RNA 473) | -0.621 | -0.578 | -0.883
LATS2 (large tumor suppressor kinase 2) | -0.575 | 0.354 | 0.174
NUDT6 (nudix hydrolase 6) | -0.99 | -0.706 | -0.682
PI4KB (phosphatidylinositol 4-kinase beta) | 1.19 | 0.501 | 0.901
LOC400172 (retired record) | 0.145 | -0.13 | -0.117
CLGN (calmegin) | -0.411 | 0.00505 | -0.0178
ST20-AS1 (ST20 antisense RNA 1) | -0.149 | -0.102 | 0.377
C1orf159 (chromosome 1 open reading frame 159) | 0.0751 | -0.307 | -0.993
CELSR3 (cadherin EGF LAG seven-pass G-type receptor 3) | 0.14 | -0.0961 | 0.409
LOC441569 (retired record) | 0.073 | 0.442 | -0.235
TOMM7 (translocase of outer mitochondrial membrane 7) | -1.29 | 0.698 | -1.59
CCDC144BP (coiled-coil domain containing 144B, pseudogene) | -1.22 | -0.963 | -1.21
HSD3BP4 (hydroxy-delta-5-steroid dehydrogenase, 3 beta, pseudogene 4) | -1.04 | -0.69 | 0.176
ERO1B (endoplasmic reticulum oxidoreductase 1 beta) | 0.112 | -0.702 | 0.175
LOC441312 (retired record) | 0.453 | -0.464 | -0.323
ZNF852 (zinc finger protein 852) | -0.542 | -0.392 | -0.381
IRS4 (insulin receptor substrate 4) | 1.17 (active) | 2.19 | 2.12
PDE3A (phosphodiesterase 3A) | -1.71 | -0.551 | -1.15
THSD7B (thrombospondin type 1 domain containing 7B) | -1.07 | -1.02 | -0.883
LILRA2 (leukocyte immunoglobulin like receptor A2) | -0.0273 | -1.55 | -0.265
